# In article PMC7862700:
# By UniProt entry, the sequences of proteins in these tests, tags left out. Where a name states a change or a piece, a line headed by the entry shows the natural chain unless it says otherwise.
# UniProt O43186: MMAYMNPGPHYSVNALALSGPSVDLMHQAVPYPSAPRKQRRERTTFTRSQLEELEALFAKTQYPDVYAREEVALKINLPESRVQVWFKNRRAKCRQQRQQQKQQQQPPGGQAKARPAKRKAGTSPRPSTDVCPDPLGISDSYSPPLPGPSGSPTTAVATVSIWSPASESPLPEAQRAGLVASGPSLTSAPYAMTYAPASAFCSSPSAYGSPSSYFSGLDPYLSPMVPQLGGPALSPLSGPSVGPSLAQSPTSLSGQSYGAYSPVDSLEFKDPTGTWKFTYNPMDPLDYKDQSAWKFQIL
# The entries are a selection whose mix differs from that of the whole data set. At the low end of the ranking the order means little.
# Experiments:
# Assay in all cases: DAPPL (digital affinity profiling via proximity ligation, sequencing)
# Conditions in all cases: 10 mM Tris-HCl pH 7.5, 50 mM NaCl, 1 mM DTT, 4% glycerol, room temperature, 30 min; GST-TFs on glutathione beads, 16-mer random dsDNA library, 0.1% …; high values mean tight binding; double strand, one strand shown; scale: fold enrichment (6-mer frequency, TF over GST control)
# CRX = CRX (UniProt O43186)
# ELF5 = target: T1, ELF5 (UniProt Q9UKW6-2)
# T1 sequence: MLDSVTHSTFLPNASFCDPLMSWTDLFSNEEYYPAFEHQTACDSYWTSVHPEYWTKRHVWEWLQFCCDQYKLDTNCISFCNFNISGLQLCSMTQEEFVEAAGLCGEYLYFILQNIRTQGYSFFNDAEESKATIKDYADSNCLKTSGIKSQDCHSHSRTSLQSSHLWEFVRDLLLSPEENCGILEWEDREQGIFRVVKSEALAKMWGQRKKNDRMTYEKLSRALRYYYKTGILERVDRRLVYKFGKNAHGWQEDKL
# FEV = target: T2, FEV (UniProt Q99581)
# T2 sequence: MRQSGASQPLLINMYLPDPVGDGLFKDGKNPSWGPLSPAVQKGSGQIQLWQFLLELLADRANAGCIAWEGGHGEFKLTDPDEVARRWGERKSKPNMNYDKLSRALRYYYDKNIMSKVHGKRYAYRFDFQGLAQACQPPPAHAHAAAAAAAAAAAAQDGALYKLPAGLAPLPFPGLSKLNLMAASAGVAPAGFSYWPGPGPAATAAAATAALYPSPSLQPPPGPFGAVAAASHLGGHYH
Sequence,binding signal (CRX),binding signal (ELF5),binding signal (FEV)
ATGTCC,0.937,1.65,–
ATACCT,1.12,1.04,–
CTGCAC,0.944,1.1,–
AGAAGC,1.32,1.18,–
TGAAAA,0.978,1.06,–
CAAATT,1.12,1.1,–
CGGCTC,1.26,1.27,–
ACATGG,0.892,1.1,–
GTCCCT,0.939,1.23,–
TTCCTC,1.43,3.84,–
TTCTGC,1.36,1.38,–
CACTCG,0.916,1.05,–
CAACCA,0.78,0.997,–
CTGATC,1.95,1.32,–
ACTTTT,1.25,1.26,–
ATATCG,1.07,1.1,–
CTTATC,2.44,1.17,–
TTACCC,1.95,1.43,–
TACATC,1.17,1.81,–
ATGGAA,1.22,1.13,–
CTTGCC,1.1,1.29,–
CTCAGA,1.27,1.03,–
CTATGA,0.965,1,–
AGACCT,0.967,1.05,–

Sequence,binding signal (CRX),binding signal (ELF5),binding signal (FEV)
TACCCG,1.29,1.5,–
GGCCCC,0.732,0.898,–
TTAAAC,2.58,1.18,–
GCCAAT,0.943,0.985,–
ATGCAT,1.05,1.15,–
CCGAAG,1.11,0.999,–
TGCCGC,0.921,1.22,–
GCTGTA,1.02,1.07,–
TCTTTA,1.93,1.19,–
TTGTCT,1.15,1.26,–
ACCGAA,1.08,0.993,–
AAAAAA,1.22,1.29,–
TTTTAA,2.18,1.17,–
CGTCCC,0.884,1.31,–
TGCTGA,1.04,1,0.989
GCGATG,1.03,1.17,–
TCCTTT,1.67,2,–
TAATAG,1.94,1.15,1.18
CTCCTA,1.49,1.41,1.32
CCGGAA,0.938,6.42,–
GAATAC,0.92,1.03,0.968
AATTGT,1.17,1.35,1.25
TATAGT,1.34,1.04,–
CGTCCG,0.734,1.44,–

Sequence,binding signal (CRX),binding signal (ELF5),binding signal (FEV)
GCACCC,0.762,1.17,1.12
ACAATC,1.36,1.19,1.11
ACACAC,0.898,1.16,1.18
ATGGCT,1.48,1.25,–
CCCCGG,0.822,1.3,–
CACGCC,0.813,1.1,–
TATCTA,1.73,1.18,–
ATCGAT,1.25,1.09,–
AACTCG,1.3,1.35,–
TCGATT,1.37,1.03,–
CGATGA,0.936,1.01,0.97
GAACAT,1.03,1.09,1.01
TGTGAC,0.845,1.1,–
TGCCAA,0.925,1.1,1.12
CCCGAC,1.06,1.38,–
GGATCC,0.997,1.13,–
ATCATT,1.28,1,–
TAAAAC,1.66,1.12,–
CACTGG,0.956,0.988,–
TATGGA,1.4,1.08,–
CCCATT,1.19,1.4,1.28
GCCTCA,0.991,1.15,1.19
ATATTA,1.8,1.09,1.07
GATTAT,4.27,1.04,–

Sequence,binding signal (CRX),binding signal (ELF5),binding signal (FEV)
GTATTC,1.13,1.31,–
GGGCTA,1.15,1.09,–
CTTCAA,1.22,1.32,–
CACAAT,0.956,1.06,1.06
CCATGC,0.828,1.03,1.1
CTGGGT,0.915,–,1.06
GCTCTG,0.911,1.02,1.25
GTTACG,0.818,0.987,0.968
GATATA,1.19,1.13,1.08
TCTTGC,1.21,–,1.24
TACTAG,1.3,0.937,0.974
GTTGCA,0.761,1.1,1.11
TATGGC,1.34,1.23,1.36
CTAAGC,2.45,1.07,1.05
GGTCCT,0.702,0.976,0.948
TGTTAT,1.4,1.36,1.34
ATTGAT,1.46,1.27,1.25
CCTGCA,0.998,1.3,1.26
GAACCA,0.754,1.01,0.951
ATTGAA,1.06,0.965,0.964
GGTTTC,0.965,1.52,1.55
CGAGTT,0.905,0.907,0.996
TCTGCA,1.25,1.29,1.43
TACTAC,1.13,1.36,1.35

# A different layout for part of the listing above:
Sequence	binding signal (CRX)	binding signal (ELF5)	binding signal (FEV)
TTCTGC	1.36	1.38	–
CACTCG	0.916	1.05	–
GTTGCA	0.761	1.1	1.11

# Remaining list, next part.

Sequence,binding signal (CRX),binding signal (ELF5),binding signal (FEV)
GTCCAC,0.627,0.936,1.08
TATGTA,1.51,–,1.28
AACATG,0.992,1.15,1.1
CTGTCA,0.85,–,1.03
TTGAAC,1.03,0.968,0.993
GTTCCG,0.753,–,1.99
TAGGTT,1.25,–,0.948
ACCAAC,0.924,1.13,1.19
CAACAA,0.889,1.03,1.05
ACATTA,1.38,–,1.16
AAATGG,1.22,–,1.42
ACGTTC,1.28,1.42,1.3
ATAGCA,1.07,1.16,1.13
TTATAG,2.46,1.15,1.17
GCTCCA,1.01,–,1.22
CGACCC,0.974,1.26,1.17
GCTCGT,0.99,1.1,1.06
ACGTTA,1.17,–,1.13
TTTTCA,1.28,1.25,1.17
TTCAAA,1.28,1.21,1.25
CCTAGA,1.22,0.986,0.943
AAATTT,1.24,–,1.34
AAGGTA,1.05,–,1.02
TGGCTT,1.75,–,1.34

# Copied from the list:
# ACATTA | binding signal (CRX): 1.38
# CTGTCA | binding signal (FEV): 1.03
